Experimental data published in doi:10.1101/2023.08.04.551955.
Read-outs that look alike come from different tables or passages of the source. Results are given in words; binding and its absence hold for the method and conditions named. In cells and extracts the contact can be indirect. Some binding calls cover weakened binding; strength is not graded here.

Amino acid sequences for entries named in this document (tags omitted). A change or cut given only in a name is not applied to a line headed by its entry.
UniProt P29067, whole entry: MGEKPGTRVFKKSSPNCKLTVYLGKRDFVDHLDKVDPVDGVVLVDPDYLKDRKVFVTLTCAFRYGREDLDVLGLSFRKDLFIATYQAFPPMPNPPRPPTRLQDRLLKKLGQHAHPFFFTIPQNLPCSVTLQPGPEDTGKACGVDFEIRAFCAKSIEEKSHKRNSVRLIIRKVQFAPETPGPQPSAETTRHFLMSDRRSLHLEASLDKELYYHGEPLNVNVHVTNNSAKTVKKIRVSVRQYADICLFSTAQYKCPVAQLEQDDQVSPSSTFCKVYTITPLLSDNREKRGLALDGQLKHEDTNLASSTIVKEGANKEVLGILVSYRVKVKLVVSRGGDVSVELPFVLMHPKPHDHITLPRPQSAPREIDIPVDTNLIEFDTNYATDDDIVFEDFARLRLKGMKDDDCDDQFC
UniProt P29066, whole entry: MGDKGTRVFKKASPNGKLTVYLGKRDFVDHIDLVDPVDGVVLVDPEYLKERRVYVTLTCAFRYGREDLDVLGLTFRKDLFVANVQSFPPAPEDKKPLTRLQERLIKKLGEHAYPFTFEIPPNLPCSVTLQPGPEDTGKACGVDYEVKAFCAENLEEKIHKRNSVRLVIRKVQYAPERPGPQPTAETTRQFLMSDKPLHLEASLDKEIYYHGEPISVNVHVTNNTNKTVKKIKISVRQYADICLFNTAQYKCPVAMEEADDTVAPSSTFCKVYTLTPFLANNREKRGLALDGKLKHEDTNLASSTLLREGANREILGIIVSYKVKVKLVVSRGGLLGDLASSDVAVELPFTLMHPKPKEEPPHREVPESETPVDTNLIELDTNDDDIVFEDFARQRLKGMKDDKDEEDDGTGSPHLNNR

How the values were obtained:
[1] = target: T1, AT1R-Cterm–Venus (plasma membrane-targeted C-terminus of rat AT1a angiotensin receptor) (mouse | rat); experiment: FRET or BRET
T1 sequence (chain, phosphorylation induced by PMA (PKC) in the cells; residues not printed): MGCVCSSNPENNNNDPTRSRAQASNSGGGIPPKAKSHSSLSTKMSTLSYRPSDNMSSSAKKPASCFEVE

[2] = target: RLuc8-tagged wild-type β-arrestin2 (rat) (UniProt P29067); experiment: FRET or BRET
wt-βarr1–Venus (rat) = wt-βarr1–Venus (rat) (UniProt P29066); experiment: co-IP
K2A-βarr1–Venus (rat) = K2A-βarr1–Venus (rat) (UniProt P29066); experiment: co-IP
K2A-βarr2–Venus (rat) = K2A-βarr2–Venus (rat) (UniProt P29067); experiment: co-IP
wt-βarr2–Venus (rat) = wt-βarr2–Venus (rat) (UniProt P29067); experiment: co-IP
[3] = target: RLuc8-tagged wild-type β-arrestin2 (rat) (UniProt P29067); experiment: FRET or BRET; remark: listed apart in the source
[4] = target: RLuc8-tagged K2A (K11,12A)-mutant β-arrestin2 (rat) (UniProt P29067); experiment: FRET or BRET

## RLuc8-tagged wild-type β-arrestin2 (from UniProt P29067 1-410)
[1]
  binding: binds

## RLuc8-tagged K2A (K11,12A)-mutant β-arrestin2 (from UniProt P29067 1-410)
[1]
  binding: no binding

## HTSF1-ST/AA–Venus (from UniProt O43719 1-755)
[2]
  binding: no binding

B1: HIV Tat-specific factor 1, endogenous (protein, UniProt O43719 1-755)
chain: MSGTNLDGNDEFDEQLRMQELYGDGKDGDTQTDAGGEPDSLGQQPTDTPYEWDLDKKAWFPKITEDFIATYQANYGFSNDGASSSTANVEDVHARTAEEPPQEKAPEPTDARKKGEKRKAESGWFHVEEDRNTNVYVSGLPPDITVDEFIQLMSKFGIIMRDPQTEEFKVKLYKDNQGNLKGDGLCCYLKRESVELALKLLDEDEIRGYKLHVEVAKFQLKGEYDASKKKKKCKDYKKKLSMQQKQLDWRPERRAGPSRMRHERVVIIKNMFHPMDFEDDPLVLNEIREDLRVECSKFGQIRKLLLFDRHPDGVASVSFRDPEEADYCIQTLDGRWFGGRQITAQAWDGTTDYQVEETSREREERLRGWEAFLNAPEANRGLRRSDSVSASERAGPSRARHFSEHPSTSKMNAQETATGMAFEEPIDEKKFEKTEDGGEFEEGASENNAKESSPEKEAEEGCPEKESEEGCPKRGFEGSCSQKESEEGNPVRGSEEDSPKKESKKKTLKNDCEENGLAKESEDDLNKESEEEVGPTKESEEDDSEKESDEDCSEKQSEDGSEREFEENGLEKDLDEEGSEKELHENVLDKELEENDSENSEFEDDGSEKVLDEEGSEREFDEDSDEKEEEEDTYEKVFDDESDEKEDEEYADEKGLEAADKKAEEGDADEKLFEESDDKEDEDADGKEVEDADEKLFEDDDSNEKLFDEEEDSSEKLFDDSDERGTLGGFGSVEEGPLSTGSSFILSSDDDDDDI
wt-βarr1–Venus (rat)
  binding: binds
K2A-βarr1–Venus (rat)
  binding: no binding
K2A-βarr2–Venus (rat)
  binding: no binding
wt-βarr2–Venus (rat)
  binding: binds

B2: HTSF1–Venus (protein, UniProt O43719 1-755)
chain: B1 chain
[3]
  binding: binds
[4]
  binding: no binding
